# Reference: the supplement of paper PMC11438910
# Some of the results follow. Only a few entries rise above the background.
# B1: 4-127.4 (protein)
# chain 1: QVQLQESGPGLVKPSETLSLTCGVSGYSISSGHGWSWIRQPPGKGLEWIGYVGGSSGNTNYNPSLKSRVTISKDTSKNQISLKLSSVTAADTAVYYCARRGISGTFGLVDYWGQGVLVTVSS
# chain 2: QSVLTQPPSVSGAPGQRVTISCTGSSSNIGGYYVQWYQQLPGSAPKLLIYDNDQRPSGVSDRISGSRSGTSASLTITGLQSEDEADYYCQSFDSFLRGVLFGGGTRLTVL
# Tests used:
# Assay in all cases: fluorescence intensity of antibody binding to polysaccharide-coupled beads; higher = stronger binding
# [1] = target: pneumococcal polysaccharide Pn34
# [2] = target: pneumococcal polysaccharide Pn35A
# [3] = target: pneumococcal polysaccharide Pn35B
# [4] = target: pneumococcal polysaccharide Pn35C
# [5] = target: pneumococcal polysaccharide Pn35F
# [6] = target: pneumococcal polysaccharide Pn36
# [7] = target: pneumococcal polysaccharide Pn37
# [8] = target: pneumococcal polysaccharide Pn38
# [9] = target: pneumococcal polysaccharide Pn39
# [10] = target: pneumococcal polysaccharide Pn4
# [11] = target: pneumococcal polysaccharide Pn40
# [12] = target: pneumococcal polysaccharide Pn41A
# [13] = target: pneumococcal polysaccharide Pn41F
# [14] = target: pneumococcal polysaccharide Pn42
# [15] = target: pneumococcal polysaccharide Pn43
# [16] = target: pneumococcal polysaccharide Pn44
# [17] = target: pneumococcal polysaccharide Pn45
# [18] = target: pneumococcal polysaccharide Pn46
# [19] = target: pneumococcal polysaccharide Pn47A
# [20] = target: pneumococcal polysaccharide Pn47F
# [21] = target: pneumococcal polysaccharide Pn48
# [22] = target: pneumococcal polysaccharide Pn5
# [23] = target: pneumococcal polysaccharide Pn6A
# [24] = antibody concentration 0.1 ng/mL
# [25] = antibody concentration 0.534724 ng/mL
# [26] = antibody concentration 2.8593 ng/mL
# [27] = antibody concentration 15.2894 ng/mL
# [28] = antibody concentration 81.7561 ng/mL
# [29] = antibody concentration 437.17 ng/mL
# [30] = antibody concentration 2337.65 ng/mL
# [31] = antibody concentration 12500 ng/mL
binder,measurement,setting,value
B1,fluorescence intensity,[1]; [24],13.5 MFI
same,fluorescence intensity,[1]; [25],14 MFI
same,fluorescence intensity,[1]; [26],14 MFI
same,fluorescence intensity,[1]; [27],14.5 MFI
same,fluorescence intensity,[1]; [28],12.5 MFI
same,fluorescence intensity,[1]; [29],15.2 MFI
same,fluorescence intensity,[1]; [30],13.5 MFI
same,fluorescence intensity,[1]; [31],17 MFI
same,fluorescence intensity,[2]; [24],18.5 MFI
same,fluorescence intensity,[2]; [25],16 MFI
same,fluorescence intensity,[2]; [26],16.5 MFI
same,fluorescence intensity,[2]; [27],17 MFI
same,fluorescence intensity,[2]; [28],16.5 MFI
same,fluorescence intensity,[2]; [29],16.5 MFI
same,fluorescence intensity,[2]; [30],17.8 MFI
same,fluorescence intensity,[2]; [31],33 MFI
same,fluorescence intensity,[3]; [24],18.5 MFI
same,fluorescence intensity,[3]; [25],18.2 MFI
same,fluorescence intensity,[3]; [26],17 MFI
same,fluorescence intensity,[3]; [27],17.8 MFI
same,fluorescence intensity,[3]; [28],17.5 MFI
same,fluorescence intensity,[3]; [29],17 MFI
same,fluorescence intensity,[3]; [30],20.5 MFI
same,fluorescence intensity,[3]; [31],29 MFI
same,fluorescence intensity,[4]; [24],19.8 MFI
same,fluorescence intensity,[4]; [25],20 MFI
same,fluorescence intensity,[4]; [26],20.2 MFI
same,fluorescence intensity,[4]; [27],19.2 MFI
same,fluorescence intensity,[4]; [28],20 MFI
same,fluorescence intensity,[4]; [29],20.5 MFI
same,fluorescence intensity,[4]; [30],21.5 MFI
same,fluorescence intensity,[4]; [31],23 MFI
same,fluorescence intensity,[5]; [24],19.5 MFI
same,fluorescence intensity,[5]; [25],17.8 MFI
same,fluorescence intensity,[5]; [26],21 MFI
same,fluorescence intensity,[5]; [27],18.5 MFI
same,fluorescence intensity,[5]; [28],17.5 MFI
same,fluorescence intensity,[5]; [29],18.5 MFI
same,fluorescence intensity,[5]; [30],21 MFI
same,fluorescence intensity,[5]; [31],21 MFI
same,fluorescence intensity,[6]; [24],15.5 MFI
same,fluorescence intensity,[6]; [25],15.8 MFI
same,fluorescence intensity,[6]; [26],16 MFI
same,fluorescence intensity,[6]; [27],15.5 MFI
same,fluorescence intensity,[6]; [28],16 MFI
same,fluorescence intensity,[6]; [29],17 MFI
same,fluorescence intensity,[6]; [30],18.5 MFI
same,fluorescence intensity,[6]; [31],34.5 MFI
same,fluorescence intensity,[7]; [24],23.5 MFI
same,fluorescence intensity,[7]; [25],23.8 MFI
same,fluorescence intensity,[7]; [26],25 MFI
same,fluorescence intensity,[7]; [27],26.5 MFI
same,fluorescence intensity,[7]; [28],26.5 MFI
same,fluorescence intensity,[7]; [29],31 MFI
same,fluorescence intensity,[7]; [30],39 MFI
same,fluorescence intensity,[7]; [31],120 MFI
same,fluorescence intensity,[8]; [24],25.5 MFI
same,fluorescence intensity,[8]; [25],25 MFI
same,fluorescence intensity,[8]; [26],26 MFI
same,fluorescence intensity,[8]; [27],25.5 MFI
same,fluorescence intensity,[8]; [28],25.5 MFI
same,fluorescence intensity,[8]; [29],25 MFI
same,fluorescence intensity,[8]; [30],29 MFI
same,fluorescence intensity,[8]; [31],37 MFI
same,fluorescence intensity,[9]; [24],19 MFI
same,fluorescence intensity,[9]; [25],18 MFI
same,fluorescence intensity,[9]; [26],16.2 MFI
same,fluorescence intensity,[9]; [27],19 MFI
same,fluorescence intensity,[9]; [28],18.5 MFI
same,fluorescence intensity,[9]; [29],18 MFI
same,fluorescence intensity,[9]; [30],19.5 MFI
same,fluorescence intensity,[9]; [31],29 MFI
same,fluorescence intensity,[10]; [24],17.5 MFI
same,fluorescence intensity,[10]; [25],18 MFI
same,fluorescence intensity,[10]; [26],18.5 MFI
same,fluorescence intensity,[10]; [27],19 MFI
same,fluorescence intensity,[10]; [28],19.2 MFI
same,fluorescence intensity,[10]; [29],21.2 MFI
same,fluorescence intensity,[10]; [30],25.5 MFI
same,fluorescence intensity,[10]; [31],35.5 MFI
same,fluorescence intensity,[11]; [24],17.8 MFI
same,fluorescence intensity,[11]; [25],16.5 MFI
same,fluorescence intensity,[11]; [26],17 MFI
same,fluorescence intensity,[11]; [27],16.5 MFI
same,fluorescence intensity,[11]; [28],16.5 MFI
same,fluorescence intensity,[11]; [29],19 MFI
same,fluorescence intensity,[11]; [30],19.8 MFI
same,fluorescence intensity,[11]; [31],40 MFI
same,fluorescence intensity,[12]; [24],21.5 MFI
same,fluorescence intensity,[12]; [25],22.5 MFI
same,fluorescence intensity,[12]; [26],23.5 MFI
same,fluorescence intensity,[12]; [27],23.5 MFI
same,fluorescence intensity,[12]; [28],24.5 MFI
same,fluorescence intensity,[12]; [29],24.5 MFI
same,fluorescence intensity,[12]; [30],25.8 MFI
same,fluorescence intensity,[12]; [31],28 MFI
same,fluorescence intensity,[13]; [24],11.5 MFI
same,fluorescence intensity,[13]; [25],12.5 MFI
same,fluorescence intensity,[13]; [26],12 MFI
same,fluorescence intensity,[13]; [27],12.5 MFI
same,fluorescence intensity,[13]; [28],12.5 MFI
same,fluorescence intensity,[13]; [29],15 MFI
same,fluorescence intensity,[13]; [30],16 MFI
same,fluorescence intensity,[13]; [31],21 MFI
same,fluorescence intensity,[14]; [24],10.5 MFI
same,fluorescence intensity,[14]; [25],12 MFI
same,fluorescence intensity,[14]; [26],11.5 MFI
same,fluorescence intensity,[14]; [27],11.8 MFI
same,fluorescence intensity,[14]; [28],12.5 MFI
same,fluorescence intensity,[14]; [29],12.5 MFI
same,fluorescence intensity,[14]; [30],13.5 MFI
same,fluorescence intensity,[14]; [31],22 MFI
same,fluorescence intensity,[15]; [24],14.5 MFI
same,fluorescence intensity,[15]; [25],16 MFI
same,fluorescence intensity,[15]; [26],16.5 MFI
same,fluorescence intensity,[15]; [27],14 MFI
same,fluorescence intensity,[15]; [28],16.8 MFI
same,fluorescence intensity,[15]; [29],18.5 MFI
same,fluorescence intensity,[15]; [30],26 MFI
same,fluorescence intensity,[15]; [31],66.8 MFI
same,fluorescence intensity,[16]; [24],26 MFI
same,fluorescence intensity,[16]; [25],25.5 MFI
same,fluorescence intensity,[16]; [26],26 MFI
same,fluorescence intensity,[16]; [27],24.2 MFI
same,fluorescence intensity,[16]; [28],23.5 MFI
same,fluorescence intensity,[16]; [29],26 MFI
same,fluorescence intensity,[16]; [30],27.5 MFI
same,fluorescence intensity,[16]; [31],33.2 MFI
same,fluorescence intensity,[17]; [24],11 MFI
same,fluorescence intensity,[17]; [25],10 MFI
same,fluorescence intensity,[17]; [26],10.5 MFI
same,fluorescence intensity,[17]; [27],12 MFI
same,fluorescence intensity,[17]; [28],11 MFI
same,fluorescence intensity,[17]; [29],10.8 MFI
same,fluorescence intensity,[17]; [30],11.5 MFI
same,fluorescence intensity,[17]; [31],17 MFI
same,fluorescence intensity,[18]; [24],23 MFI
same,fluorescence intensity,[18]; [25],23 MFI
same,fluorescence intensity,[18]; [26],22.5 MFI
same,fluorescence intensity,[18]; [27],24 MFI
same,fluorescence intensity,[18]; [28],24.8 MFI
same,fluorescence intensity,[18]; [29],25.5 MFI
same,fluorescence intensity,[18]; [30],27 MFI
same,fluorescence intensity,[18]; [31],42.2 MFI
same,fluorescence intensity,[19]; [24],14.5 MFI
same,fluorescence intensity,[19]; [25],15.5 MFI
same,fluorescence intensity,[19]; [26],16 MFI
same,fluorescence intensity,[19]; [27],15.2 MFI
same,fluorescence intensity,[19]; [28],15.5 MFI
same,fluorescence intensity,[19]; [29],15.5 MFI
same,fluorescence intensity,[19]; [30],16 MFI
same,fluorescence intensity,[19]; [31],22.5 MFI
same,fluorescence intensity,[20]; [24],11.2 MFI
same,fluorescence intensity,[20]; [25],11 MFI
same,fluorescence intensity,[20]; [26],11.5 MFI
same,fluorescence intensity,[20]; [27],11.5 MFI
same,fluorescence intensity,[20]; [28],12 MFI
same,fluorescence intensity,[20]; [29],13.8 MFI
same,fluorescence intensity,[20]; [30],13.5 MFI
same,fluorescence intensity,[20]; [31],28.8 MFI
same,fluorescence intensity,[21]; [24],22.2 MFI
same,fluorescence intensity,[21]; [25],21.8 MFI
same,fluorescence intensity,[21]; [26],20.5 MFI
same,fluorescence intensity,[21]; [27],21.2 MFI
same,fluorescence intensity,[21]; [28],21 MFI
same,fluorescence intensity,[21]; [29],22 MFI
same,fluorescence intensity,[21]; [30],28 MFI
same,fluorescence intensity,[21]; [31],39.5 MFI
same,fluorescence intensity,[22]; [24],8.5 MFI
same,fluorescence intensity,[22]; [25],9.25 MFI
same,fluorescence intensity,[22]; [26],8.75 MFI
same,fluorescence intensity,[22]; [27],9.5 MFI
same,fluorescence intensity,[22]; [28],9.5 MFI
same,fluorescence intensity,[22]; [29],10.5 MFI
same,fluorescence intensity,[22]; [30],12 MFI
same,fluorescence intensity,[22]; [31],32 MFI
same,fluorescence intensity,[23]; [24],22 MFI
same,fluorescence intensity,[23]; [25],20.5 MFI
same,fluorescence intensity,[23]; [26],22.8 MFI
same,fluorescence intensity,[23]; [27],23.5 MFI

# 2 entries from above, reformatted:
binder	measurement	setting	value
B1	fluorescence intensity	[12]; [29]	24.5 MFI
same	fluorescence intensity	[12]; [30]	25.8 MFI

# Part of the list above in another layout.
binder | measurement | setting | value
B1 | fluorescence intensity | [5]; [31] | 21 MFI
same | fluorescence intensity | [6]; [24] | 15.5 MFI
same | fluorescence intensity | [6]; [25] | 15.8 MFI
same | fluorescence intensity | [6]; [26] | 16 MFI
same | fluorescence intensity | [6]; [27] | 15.5 MFI
same | fluorescence intensity | [6]; [28] | 16 MFI

# Part of the list above in another layout:
binder | measurement | setting | value
B1 | fluorescence intensity | [15]; [26] | 16.5 MFI
same | fluorescence intensity | [15]; [27] | 14 MFI
same | fluorescence intensity | [15]; [28] | 16.8 MFI
same | fluorescence intensity | [15]; [29] | 18.5 MFI
